# The list shows a part of the results.
# B1: PX14375D-bvu-513-34-513 (Bacteroides vulgatus) (protein)
# chain: TEDTFWKDETDFNLALTSCYTPLKNALNGGYYGTRGVMLRIARADEVDFRNDISDVYTVNRFTNSNTNSLTQGMFYQFYNALYRTNSIMQKLEEKKEQFSTDFQNSVKGECLFIRGFYLFQLAKEFKDAPLRLTASQSPSTFPLAKSSQADIWAQAKEDLKTAASLLPITNKIGKPTQGAAYAALGKIYVYEENWQEAINVLEPLTQNPYTYKLVEDFNWNFDDTHENNAESIFELLIEDVGGTDLWGDGENINSTQSNTRPKEYAAAEVGGWYEANPTQQIMDIFWKEKDKDGNFDYRARCSVAWDYEGCTYYQRPFREVFAQDKWKTYWILKYQNWKTQKDEPAPPKSFINERAIRYADVLLMLAEAYMNKGALDTSIGYINQIRRRANLNDYSGPITKEGVFEDLVHQRAIEFFVEGERFYDLRRWGLLEQTLKTCDDTRYKNYQTGKSDNINKFNYFPIPAKELDTNPLCTPSEGW
# Columns and labels:
# Assay in all cases: glycan array binding signal (z-score within array); higher = stronger binding
# Details in all cases: glycan notation: IUPAC condensed, linker removed
# Fuc(a1-3)GlcNAc = target: Fuc(a1-3)GlcNAc
# Procedure, shortened: (§1)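 Glycan array data came from 3228 arrays in the Consortium for Functional Glycomics database, and only arrays with an available protein sequence were kept. Glycan names were put into IUPAC-condensed notation, and columns mapping to the same glycan were averaged. The binding signal is a within-array Z-score, averaged across arrays of one protein sequence run at different concentrations or buffers and across linkers. A negative Z-score can be read as non-binding.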
# [1] = target: Fuc(a1-3)[Gal(b1-4)]Glc6S
# Procedure, shortened: as §1
# [2] = target: Fuc(a1-3)[Gal(b1-4)]GlcNAc
# Procedure, shortened: as §1
# [3] = target: Fuc(a1-3)[Gal(b1-4)]GlcNAc(b1-2)Man
# Procedure, shortened: as §1
# [4] = target: Fuc(a1-3)[Gal(b1-4)]GlcNAc(b1-2)Man(a1-3)[Fuc(a1-3)[Gal(b1-4)]GlcNAc(b1-2)Man(a1-6)]Man(b1-4)GlcNAc(b1-4)GlcNAc
# Procedure, shortened: as §1
# [5] = target: Fuc(a1-3)[Gal(b1-4)]GlcNAc(b1-2)Man(a1-3)[Fuc(a1-3)[Gal(b1-4)]GlcNAc(b1-2)Man(a1-6)]Man(b1-4)GlcNAc(b1-4)[Fuc(a1-6)]GlcNAc
# Procedure, shortened: as §1
# [6] = target: Fuc(a1-3)[Gal(b1-4)]GlcNAc(b1-3)Gal(b1-3)[Fuc(a1-4)]GlcNAc
# Procedure, shortened: as §1
# [7] = target: Fuc(a1-3)[Gal(b1-4)]GlcNAc(b1-3)Gal(b1-4)[Fuc(a1-3)]GlcNAc
# Procedure, shortened: as §1
# [8] = target: Fuc(a1-3)[Gal(b1-4)]GlcNAc(b1-3)Gal(b1-4)[Fuc(a1-3)]GlcNAc(b1-3)Gal(b1-4)[Fuc(a1-3)]GlcNAc
# Procedure, shortened: as §1
# [9] = target: Fuc(a1-3)[Gal(b1-4)]GlcNAc(b1-3)GalNAc
# Procedure, shortened: as §1
# [10] = target: Fuc(a1-3)[Gal(b1-4)]GlcNAc(b1-6)GalNAc
# Procedure, shortened: as §1
# [11] = target: Fuc(a1-3)[Gal(b1-4)]GlcNAc(b1-6)[Gal(b1-3)GlcNAc(b1-3)]Gal(b1-4)Glc
# Procedure, shortened: as §1
# [12] = target: Fuc(a1-3)[Gal(b1-4)]GlcNAc6S
# Procedure, shortened: as §1
# [13] = target: Fuc(a1-3)[Gal3S(b1-4)]Glc
# Procedure, shortened: as §1
# [14] = target: Fuc(a1-3)[Gal3S(b1-4)]GlcNAc
# Procedure, shortened: as §1
# [15] = target: Fuc(a1-3)[Gal3S(b1-4)]GlcNAc6S
# Procedure, shortened: as §1
# [16] = target: Fuc(a1-3)[GalNAc(b1-4)]GlcNAc
# Procedure, shortened: as §1
# [17] = target: Fuc(a1-3)[GalNAc(b1-4)]GlcNAc6S
# Procedure, shortened: as §1
# Fuc(a1-4)GlcNAc = target: Fuc(a1-4)GlcNAc
# Procedure, shortened: as §1
# Fuc(b1-3)GlcNAc = target: Fuc(b1-3)GlcNAc
# Procedure, shortened: as §1
# Gal(a1-2)Gal = target: Gal(a1-2)Gal
# Procedure, shortened: as §1
# Gal(a1-3)Gal = target: Gal(a1-3)Gal
# Procedure, shortened: as §1
# Gal(a1-3)Gal(b1-3)GlcNAc = target: Gal(a1-3)Gal(b1-3)GlcNAc
# Procedure, shortened: as §1
# [18] = target: Gal(a1-3)Gal(b1-3)GlcNAc(b1-2)Man
# Procedure, shortened: as §1
# [19] = target: Gal(a1-3)Gal(b1-3)GlcNAc(b1-2)Man(a1-3)[Gal(a1-3)Gal(b1-3)GlcNAc(b1-2)Man(a1-6)]Man(b1-4)GlcNAc(b1-4)GlcNAc
# Procedure, shortened: as §1
# [20] = target: Gal(a1-3)Gal(b1-3)GlcNAc(b1-3)GalNAc
# Procedure, shortened: as §1
# [21] = target: Gal(a1-3)Gal(b1-3)GlcNAc(b1-6)GalNAc
# Procedure, shortened: as §1
# [22] = target: Gal(a1-3)Gal(b1-3)[Fuc(a1-4)]GlcNAc(b1-2)Man(a1-3)[Gal(a1-3)Gal(b1-3)[Fuc(a1-4)]GlcNAc(b1-2)Man(a1-6)]Man(b1-4)GlcNAc(b1-4)GlcNAc
# Procedure, shortened: as §1
# Gal(a1-3)Gal(b1-4)Glc = target: Gal(a1-3)Gal(b1-4)Glc
# Procedure, shortened: as §1
# Gal(a1-3)Gal(b1-4)GlcNAc = target: Gal(a1-3)Gal(b1-4)GlcNAc
# Procedure, shortened: as §1
# [23] = target: Gal(a1-3)Gal(b1-4)GlcNAc(b1-2)Man
# Procedure, shortened: as §1
# [24] = target: Gal(a1-3)Gal(b1-4)GlcNAc(b1-2)Man(a1-3)[Gal(a1-3)Gal(b1-4)GlcNAc(b1-2)Man(a1-6)]Man(b1-4)GlcNAc(b1-4)GlcNAc
# Procedure, shortened: as §1
# [25] = target: Gal(a1-3)Gal(b1-4)GlcNAc(b1-3)GalNAc
# Procedure, shortened: as §1
# [26] = target: Gal(a1-3)Gal(b1-4)GlcNAc(b1-6)GalNAc
# Procedure, shortened: as §1
# [27] = target: Gal(a1-3)Gal(b1-4)[Fuc(a1-3)]GlcNAc
# Procedure, shortened: as §1
# [28] = target: Gal(a1-3)Gal(b1-4)[Fuc(a1-3)]GlcNAc(b1-2)Man(a1-3)[Gal(a1-3)Gal(b1-4)[Fuc(a1-3)]GlcNAc(b1-2)Man(a1-6)]Man(b1-4)GlcNAc(b1-4)GlcNAc
# Procedure, shortened: as §1
# Gal(a1-3)GalNAc = target: Gal(a1-3)GalNAc
# Procedure, shortened: as §1
binder,measurement,setting,value
B1,glycan array binding signal (z-score),Fuc(a1-3)GlcNAc,-0.032
same,glycan array binding signal (z-score),[1],-0.277
same,glycan array binding signal (z-score),[2],-0.088
same,glycan array binding signal (z-score),[3],2.96
same,glycan array binding signal (z-score),[4],-0.56
same,glycan array binding signal (z-score),[5],0.751
same,glycan array binding signal (z-score),[6],-0.069
same,glycan array binding signal (z-score),[7],-0.273
same,glycan array binding signal (z-score),[8],-0.287
same,glycan array binding signal (z-score),[9],-0.531
same,glycan array binding signal (z-score),[10],0.851
same,glycan array binding signal (z-score),[11],-0.085
same,glycan array binding signal (z-score),[12],0.649
same,glycan array binding signal (z-score),[13],-1.12
same,glycan array binding signal (z-score),[14],-0.168
same,glycan array binding signal (z-score),[15],-0.673
same,glycan array binding signal (z-score),[16],0.107
same,glycan array binding signal (z-score),[17],0.126
same,glycan array binding signal (z-score),Fuc(a1-4)GlcNAc,0.758
same,glycan array binding signal (z-score),Fuc(b1-3)GlcNAc,0.388
same,glycan array binding signal (z-score),Gal(a1-2)Gal,0.16
same,glycan array binding signal (z-score),Gal(a1-3)Gal,-0.16
same,glycan array binding signal (z-score),Gal(a1-3)Gal(b1-3)GlcNAc,-0.197
same,glycan array binding signal (z-score),[18],-0.81
same,glycan array binding signal (z-score),[19],0.315
same,glycan array binding signal (z-score),[20],-1.09
same,glycan array binding signal (z-score),[21],-0.932
same,glycan array binding signal (z-score),[22],0.674
same,glycan array binding signal (z-score),Gal(a1-3)Gal(b1-4)Glc,-0.855
same,glycan array binding signal (z-score),Gal(a1-3)Gal(b1-4)GlcNAc,-0.865
same,glycan array binding signal (z-score),[23],-0.309
same,glycan array binding signal (z-score),[24],-0.241
same,glycan array binding signal (z-score),[25],-0.543
same,glycan array binding signal (z-score),[26],0.081
same,glycan array binding signal (z-score),[27],0.144
same,glycan array binding signal (z-score),[28],0.281
same,glycan array binding signal (z-score),Gal(a1-3)GalNAc,0.023

# In a second layout: results already given
binder | measurement | setting | value
B1 | glycan array binding signal (z-score) | [13] | -1.12
same | glycan array binding signal (z-score) | [14] | -0.168

# Source: the supplement of paper PMC8728848
